{"sequences": {"note": "Chains of the proteins cited; added tags and fusions are not shown. A line that says so, or that is headed by a name, gives the form on record, which may keep a tag or linker.", "VEGF121 (Homo sapiens), one chain, as listed by the source": "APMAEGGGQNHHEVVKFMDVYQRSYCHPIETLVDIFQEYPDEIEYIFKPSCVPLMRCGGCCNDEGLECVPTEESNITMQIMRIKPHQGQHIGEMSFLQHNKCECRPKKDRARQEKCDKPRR", "VEGF165 (Homo sapiens), one chain, as listed by the source": "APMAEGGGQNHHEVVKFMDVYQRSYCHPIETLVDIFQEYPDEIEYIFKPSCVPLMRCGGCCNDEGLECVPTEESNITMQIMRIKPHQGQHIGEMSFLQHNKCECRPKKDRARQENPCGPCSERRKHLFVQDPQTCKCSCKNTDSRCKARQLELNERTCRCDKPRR"}, "source": "paper PMC3547035", "key": {"VEGF165 (Homo sapiens)": {"tested_on": "VEGF165 (Homo sapiens)", "experiment": "SPR", "settings": "SPR BIAcore 2000, CM5 chip, immobilized protein ~200 RU, PBS + Tween-20 running buffer (pH not stated), 25 C, aptamer 0.2-100 nM, 1:1 Langmuir fit; recombinant protein; protein details: carrier free; single-stranded DNA"}, "VEGF121 (Homo sapiens)": {"tested_on": "VEGF121 (Homo sapiens)", "experiment": "SPR", "settings": "SPR BIAcore 2000, CM5 chip, immobilized protein ~200 RU, PBS + Tween-20 running buffer (pH not stated), 25 C, aptamer 0.2-100 nM, 1:1 Langmuir fit; recombinant protein; protein details: carrier free; single-stranded DNA"}}, "note": "Construct, isoform or probe ends are uncertain for at least one entry."}
{"sequence": "CAATTGGGCCCGTCCGTATGGTGGGT [Unmodified SL2-B]", "values": [{"measurement": "Kd", "setting": "VEGF165 (Homo sapiens)", "result": 0.0005, "unit": "µM"}, {"measurement": "Kd", "setting": "VEGF121 (Homo sapiens)", "result": 10, "unit": "µM"}]}
